# Measured values taken from PubChem BioAssay AID1347075 (National Center for Advancing Translational Sciences (NCATS), 2019).
# Among all 400,000 compounds or so, about 5,500 (1.4%) were called active. The inconclusive results got no clear call from the source; some entries with a clear call stand among them for comparison. Calls come from the whole dose curve; as a rule, active = well fitted cell-killing curve with a large enough effect; inconclusive = small, poorly fitted or top-dose-only effect, or effect the other way; inactive = flat fitted curve, though single readings scatter. A potency beside an inconclusive call is a rough fit, not a confirmed value.
# Assay: qHTS assay for MDR1-selective chemotherapeutics: Primary screen using the parental adenocarcinoma cell KB-3-1; note: nearly all actives have a fitted effect of over 60% in size
# Conditions: KB-3-1 viability, CellTiter-Glo ATP luminescence, 72 h; activity change, negative = cytotoxic: at 46.1 µM (top of the series)
# Procedure, shortened: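 Multi-concentration cytotoxicity screen in KB-3-1 cells grown in DMEM lacking phenol red with 10% FBS. After 72 h at 37 °C with compound, ATP-dependent luminescence was recorded.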
# % is set by controls: 0 for no effect and ±100 for the full control effect; potency is the fitted concentration of half-maximal effect.
Compound,Potency,"activity change, negative = cytotoxic"
Cc1ccccc1OCc1nnc(SCC(=O)Nc2ccc(N3CCOCC3)cc2)n1C,"inconclusive: 25.9 µM [rising, single point]",
COc1ccccc1NS(=O)(=O)c1cc(NC(=O)C2CCC2)ccc1N1CCCCC1,,inactive: -15.3%
CC(C)NC(=O)c1onc(CSc2ccccc2)c1C(=O)O,,inconclusive: -8.71%
Cn1nc([N+](=O)[O-])c(C(C#N)c2ccccn2)c(Cl)c1=O (stereo not drawn),,inactive: -1.3%
O=c1[nH]nc(-c2ccc[nH]2)[nH]1,,inactive: -14.9%
Cc1ccc(F)cc1NC(=O)COC(=O)c1ccc(S(C)(=O)=O)c([N+](=O)[O-])c1,"inconclusive: 29.1 µM [cytotoxic, single point]",
Cc1cccc(Cn2c(NCCO)nc3c2c(=O)n(C)c(=O)n3C)c1,"inconclusive: 13 µM [cytotoxic, partial curve]",
COC(=O)c1cc2ccccc2c(-c2c(OC)c(C(=O)OC)cc3ccccc23)c1OC,"inconclusive: 29.1 µM [cytotoxic, single point]",
C=CCN(c1ccccc1)S(=O)(=O)c1cccc(C(=O)N2CC(C)CC(C)C2)c1 (stereo not drawn),"inconclusive: 20.6 µM [cytotoxic, single point]",
COC(=O)C(CCSC)NC(=O)C(NC(=O)C1CCC(C)CC1)C(C)C (stereo not drawn),"inconclusive: 23.1 µM [cytotoxic, single point]",
COc1ccc(N2CCN(CCCNC(=O)CCC(=O)N3CCOc4ccc(Cl)cc43)CC2)cc1,"inconclusive: 20.6 µM [cytotoxic, single point]",
O=C(c1ccc(F)cc1)N1CCC2(CC1)NCCc1[nH]cnc12,"inconclusive: 23.1 µM [rising, single point]",
COc1ccc(-c2nc(C#N)c(N3CCC(C(N)=O)CC3)o2)cc1,"inconclusive: 29.1 µM [rising, single point]",
Cc1ccc(N(Cc2ccccc2)C(=O)c2cc(S(=O)(=O)N3CCOCC3)ccc2Cl)cc1,"inconclusive: 29.1 µM [cytotoxic, single point]",
Cc1ccc(N(C(=O)Cc2cccs2)C(C(=O)NC2CCCCC2)c2ccccn2)cc1C (stereo not drawn),"inconclusive: 20.6 µM [cytotoxic, single point]",
O=C(Nc1ccc(F)cc1)c1ccc(S(=O)(=O)NCC2CCCO2)cc1 (stereo not drawn),"inconclusive: 23.1 µM [cytotoxic, partial curve, poor fit]",
CCOc1ccc(S(=O)(=O)N2CCCCC2)cc1NC(=O)CN1C(=O)NC(C)(c2ccc(C)cc2)C1=O (stereo not drawn),"inconclusive: 9.2 µM [cytotoxic, partial curve, poor fit]",
COc1ccc(-c2oc(NC(=O)CSc3nncn3C)c(C#N)c2-c2ccc(OC)cc2)cc1,"inconclusive: 20.6 µM [cytotoxic, single point]",
CC(C)c1ccc(N2C(=O)CSC23C(=O)N(Cc2ccccc2F)c2ccccc23)cc1 (stereo not drawn),"inconclusive: 29.1 µM [cytotoxic, single point]",
CCOC(=O)/C(=C\c1ccc(OC(F)F)cc1)C1=Nn2c(nnc2-c2ccc(Cl)cc2)SC1,"inconclusive: 29.1 µM [cytotoxic, single point]",
CCCCCCC[n+]1ccc(/C=C/c2c[nH]c3ccccc23)cc1,active: 0.411 µM,

Compound,Potency,"activity change, negative = cytotoxic"
CC(C)Oc1ccc(CNS(=O)(=O)c2csc(C(N)=O)c2)cc1,"inconclusive: 18.4 µM [cytotoxic, single point]",
Cc1nc2nc(SCc3ccc([N+](=O)[O-])cc3)[nH]c2cc1Br,"inconclusive: 0.13 µM [cytotoxic, full curve, poor fit]",
NC(=O)c1ccsc1NC(=O)c1ccc(S(=O)(=O)N2CCCc3ccccc32)cc1,active: 23.1 µM,
CC(C)C(N)c1csc(NC(=O)Nc2cccc(C(F)(F)F)c2)n1 (stereo not drawn),"inconclusive: 29.1 µM [cytotoxic, single point]",
O=C(C[C@H]1CC[C@H]2[C@@H](COC[C@@H](O)CN2C(=O)c2cnccn2)O1)NCc1ccc(Oc2ccccc2)cc1,,inactive: -0.233%
Cc1noc2ncnc(Sc3c(Cl)cccc3Cl)c12,"inconclusive: 29.1 µM [cytotoxic, single point]",
CCN(C(=O)CN1C(=O)NC(c2ccccc2)(c2ccc(C)c(C)c2)C1=O)C1CCCCC1 (stereo not drawn),"inconclusive: 18.4 µM [cytotoxic, single point]",
O=C(CN1CCCN(Cc2ccc(F)cc2Cl)C1=O)NCc1ccccc1,,inactive: -0.959%
COc1cc(C#Cc2c(-c3cncn3C)n(C)c3ccc(Br)cc23)cc(OC)c1,"inconclusive: 29.1 µM [cytotoxic, single point]",
O=C(CN1CCN(c2ccc(Cl)cc2)CC1)Nc1cccc(F)c1,"inconclusive: 20.6 µM [cytotoxic, partial curve, poor fit]",
Cc1c(C(=O)NCc2ccccn2)sc2nc(-c3ccc(F)cc3)cn12,"inconclusive: 17.8 µM [cytotoxic, single point]",
CCOC(=O)Cn1c(=O)n(C2CCCCC2)c2nc(-c3ccc(CC)cc3)nc(C(N)=O)c21,active: 8.2 µM,
COc1cc(CN2CCc3nc(N4CCN(c5ncccn5)CC4)ncc3C2)cc(OC)c1OC,"inconclusive: 23.1 µM [cytotoxic, single point]",
Cc1ccc(CNC(=O)C2CCCN(S(=O)(=O)c3c(C)noc3/C=C/N(C)C)C2)cc1 (stereo not drawn),,inactive: 0.579%
CC(C)CN(C(=O)C1CCCC1)C1CCS(=O)(=O)C1 (stereo not drawn),"inconclusive: 8.2 µM [rising, partial curve, poor fit]",
C/C(CCC(C)C)=N\NC(=S)NCc1ccccc1,,inactive: -3.16%
Cc1ccc(S(=O)(=O)NCCc2csc(-c3ccc(Cl)cc3)n2)cc1,"inconclusive: 29.1 µM [cytotoxic, single point]",
N#Cc1c(NC(=O)c2ccccc2Cl)n(Cc2ccccc2)c2nc3ccccc3nc12,"inconclusive: 20.6 µM [cytotoxic, single point]",
COc1ccc(OC(=O)c2cccc([N+](=O)[O-])c2)c(C(=O)/C=C/c2cccs2)c1,"inconclusive: 32.6 µM [cytotoxic, single point]",
Cc1ccc(NC(=O)CSc2nnc(-c3ccccc3Br)o2)cc1C,"inconclusive: 14.6 µM [cytotoxic, single point]",
CC(C)(C)OC(=O)N1CCN(c2ccc(NC(=O)Cn3nnc(-c4ccccc4)n3)cc2)CC1,"inconclusive: 16.4 µM [cytotoxic, single point]",

Compound,Potency,"activity change, negative = cytotoxic"
COc1ccc(-c2ccc(C(=O)Nc3ccccc3)c3occc23)c(C)c1,"inconclusive: 20.6 µM [cytotoxic, partial curve, poor fit]",
O=C(N=Nc1c(O)[nH]c2ccc(Br)cc12)c1cc(-c2cccs2)nc2ccccc12,"inconclusive: 20.6 µM [cytotoxic, partial curve, poor fit]",
Cc1cc(NC(=O)CSc2ccc3nnc(-c4ccccc4)n3n2)no1,,inactive: -1.89%
COc1ccc(NC(=O)c2ccc(COc3ccccc3Br)o2)cc1OC,"inconclusive: 23.1 µM [cytotoxic, partial curve, poor fit]",
CCc1c(C)c(C#N)c2[nH]c3ccccc3n2c1=S,"inconclusive: 29.1 µM [cytotoxic, single point]",
Cc1ccc(S(=O)(=O)N(C)C[C@H]2Oc3cc(Br)ccc3S(=O)(=O)N([C@H](C)CO)C[C@H]2C)cc1,"inconclusive: 32.6 µM [cytotoxic, single point]",
CC(=O)N(C(C)=O)c1nc(-c2ccccc2)cn1/N=C/c1ccccc1,"inconclusive: 20.6 µM [cytotoxic, single point]",
CCOc1ccccc1NS(=O)(=O)c1ccc2c(c1)CC(C)N2C(=O)C1CCC1 (stereo not drawn),"inconclusive: 20.6 µM [cytotoxic, partial curve, poor fit]",
O=C(/C=C/c1ccccc1)CCN1CCCCC1,"inconclusive: 20.6 µM [cytotoxic, single point]",
O=C(Nc1ccccc1[N+](=O)[O-])c1cccc(N2C(=O)CCC2=O)c1,,inactive: -8.93%
N#C/C(=C\c1ccc(N2CCOCC2)o1)C(=O)NC1CCCCC1,"inconclusive: 29.1 µM [rising, single point]",
CS(=O)(=O)N(CC(=O)Nc1ccccc1C(=O)N1CCCC1)c1ccccc1Br,"inconclusive: 29.1 µM [rising, single point]",
COc1ccccc1N1CCN(C(=O)c2cn(C)c3ccc(S(=O)(=O)N(C)C4CCCCC4)cc3c2=O)CC1,"inconclusive: 9.2 µM [rising, partial curve]",
O=C(N/N=C/c1ccc([N+](=O)[O-])o1)c1ccccc1NS(=O)(=O)c1cccs1,"inconclusive: 18.4 µM [cytotoxic, single point]",
NC(=S)Nc1nc2ccccc2s1,"inconclusive: 13 µM [cytotoxic, partial curve]",
O=c1cc(-c2ccccc2)[nH]c2ccc(F)cc12,active: 1.16 µM,
Nc1ncnc(Nc2cccc(Cl)c2Cl)n1,"inconclusive: 25.9 µM [cytotoxic, single point]",
O=C(N/N=C/c1cccc([N+](=O)[O-])c1)c1ccc(COc2ccccc2-c2ccccc2)cc1,"inconclusive: 29.1 µM [cytotoxic, single point]",
CCCn1cnc2c(cnn2-c2ccc(F)cc2)c1=O,"inconclusive: 16.4 µM [cytotoxic, single point]",
CCN1CCC2(CC1)N=C(c1ccc(F)cc1)C(=S)N2C(=O)c1ccc(C)cc1,"inconclusive: 29.1 µM [cytotoxic, single point]",
Cc1sc2nc(C3CC3)nc(N3CCN(C(=O)c4ccc(Cl)cc4)CC3)c2c1C,"inconclusive: 20.6 µM [cytotoxic, single point]",

# Some of the entries above, reformatted.
Compound	Potency	activity change, negative = cytotoxic
COc1ccc(N2CCN(CCCNC(=O)CCC(=O)N3CCOc4ccc(Cl)cc43)CC2)cc1	inconclusive: 20.6 µM [cytotoxic, single point]	
CC(C)Oc1ccc(CNS(=O)(=O)c2csc(C(N)=O)c2)cc1	inconclusive: 18.4 µM [cytotoxic, single point]	
Cc1nc2nc(SCc3ccc([N+](=O)[O-])cc3)[nH]c2cc1Br	inconclusive: 0.13 µM [cytotoxic, full curve, poor fit]	
CC(C)C(N)c1csc(NC(=O)Nc2cccc(C(F)(F)F)c2)n1 (stereo not drawn)	inconclusive: 29.1 µM [cytotoxic, single point]	
Cc1noc2ncnc(Sc3c(Cl)cccc3Cl)c12	inconclusive: 29.1 µM [cytotoxic, single point]	
CCN(C(=O)CN1C(=O)NC(c2ccccc2)(c2ccc(C)c(C)c2)C1=O)C1CCCCC1 (stereo not drawn)	inconclusive: 18.4 µM [cytotoxic, single point]	
O=C(CN1CCCN(Cc2ccc(F)cc2Cl)C1=O)NCc1ccccc1		inactive: -0.959%
O=C(CN1CCN(c2ccc(Cl)cc2)CC1)Nc1cccc(F)c1	inconclusive: 20.6 µM [cytotoxic, partial curve, poor fit]	
O=C(N=Nc1c(O)[nH]c2ccc(Br)cc12)c1cc(-c2cccs2)nc2ccccc12	inconclusive: 20.6 µM [cytotoxic, partial curve, poor fit]	
CCc1c(C)c(C#N)c2[nH]c3ccccc3n2c1=S	inconclusive: 29.1 µM [cytotoxic, single point]	
Cc1ccc(S(=O)(=O)N(C)C[C@H]2Oc3cc(Br)ccc3S(=O)(=O)N([C@H](C)CO)C[C@H]2C)cc1	inconclusive: 32.6 µM [cytotoxic, single point]	
O=C(/C=C/c1ccccc1)CCN1CCCCC1	inconclusive: 20.6 µM [cytotoxic, single point]	
O=c1cc(-c2ccccc2)[nH]c2ccc(F)cc12	active: 1.16 µM	
